Reference: the supplement of paper PMC10849652
Some of the results follow.

By UniProt entry, the sequences of proteins in these tests, tags left out. Where a name states a change or a piece, a line headed by the entry shows the natural chain unless it says otherwise.
UniProt Q96AN5: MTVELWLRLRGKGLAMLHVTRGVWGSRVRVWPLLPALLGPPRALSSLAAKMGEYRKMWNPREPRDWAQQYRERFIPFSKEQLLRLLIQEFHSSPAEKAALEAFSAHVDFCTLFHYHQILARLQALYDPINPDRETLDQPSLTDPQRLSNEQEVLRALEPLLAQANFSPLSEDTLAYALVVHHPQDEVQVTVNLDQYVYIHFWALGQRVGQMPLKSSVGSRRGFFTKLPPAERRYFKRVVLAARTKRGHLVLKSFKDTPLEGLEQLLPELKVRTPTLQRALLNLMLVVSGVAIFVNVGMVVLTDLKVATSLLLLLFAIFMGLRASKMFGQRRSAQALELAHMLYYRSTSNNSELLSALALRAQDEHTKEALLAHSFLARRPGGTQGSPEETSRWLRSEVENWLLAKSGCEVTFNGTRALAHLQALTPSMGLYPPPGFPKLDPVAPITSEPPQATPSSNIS
UniProt Q6ZT21: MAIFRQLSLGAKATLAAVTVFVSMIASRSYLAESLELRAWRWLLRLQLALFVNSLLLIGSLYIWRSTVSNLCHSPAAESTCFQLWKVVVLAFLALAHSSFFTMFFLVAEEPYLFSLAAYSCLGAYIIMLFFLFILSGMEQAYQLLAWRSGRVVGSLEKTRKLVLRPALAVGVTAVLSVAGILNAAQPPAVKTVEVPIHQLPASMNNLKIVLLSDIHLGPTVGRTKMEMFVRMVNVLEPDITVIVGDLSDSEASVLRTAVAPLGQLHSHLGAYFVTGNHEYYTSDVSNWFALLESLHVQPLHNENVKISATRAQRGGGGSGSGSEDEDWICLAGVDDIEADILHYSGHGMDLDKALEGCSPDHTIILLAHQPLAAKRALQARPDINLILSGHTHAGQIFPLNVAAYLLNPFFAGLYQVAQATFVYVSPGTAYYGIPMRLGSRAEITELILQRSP
UniProt O94876, whole entry, looked up: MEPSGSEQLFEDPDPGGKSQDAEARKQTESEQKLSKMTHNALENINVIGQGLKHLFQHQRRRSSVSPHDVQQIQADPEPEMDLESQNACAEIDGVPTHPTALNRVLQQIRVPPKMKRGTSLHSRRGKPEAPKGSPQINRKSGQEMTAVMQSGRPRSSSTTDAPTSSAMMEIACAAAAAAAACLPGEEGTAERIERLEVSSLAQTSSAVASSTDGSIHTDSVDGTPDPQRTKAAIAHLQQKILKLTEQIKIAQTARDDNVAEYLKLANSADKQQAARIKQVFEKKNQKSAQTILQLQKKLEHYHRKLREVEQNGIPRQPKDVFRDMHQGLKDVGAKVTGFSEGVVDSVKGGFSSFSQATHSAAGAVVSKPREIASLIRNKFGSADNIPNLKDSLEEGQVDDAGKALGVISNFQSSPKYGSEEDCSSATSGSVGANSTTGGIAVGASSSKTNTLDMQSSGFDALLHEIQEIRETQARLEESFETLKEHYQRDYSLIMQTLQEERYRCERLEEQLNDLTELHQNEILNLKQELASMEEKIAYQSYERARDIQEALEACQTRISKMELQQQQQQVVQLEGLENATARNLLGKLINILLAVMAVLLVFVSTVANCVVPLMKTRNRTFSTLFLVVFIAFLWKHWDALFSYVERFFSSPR
UniProt O76062: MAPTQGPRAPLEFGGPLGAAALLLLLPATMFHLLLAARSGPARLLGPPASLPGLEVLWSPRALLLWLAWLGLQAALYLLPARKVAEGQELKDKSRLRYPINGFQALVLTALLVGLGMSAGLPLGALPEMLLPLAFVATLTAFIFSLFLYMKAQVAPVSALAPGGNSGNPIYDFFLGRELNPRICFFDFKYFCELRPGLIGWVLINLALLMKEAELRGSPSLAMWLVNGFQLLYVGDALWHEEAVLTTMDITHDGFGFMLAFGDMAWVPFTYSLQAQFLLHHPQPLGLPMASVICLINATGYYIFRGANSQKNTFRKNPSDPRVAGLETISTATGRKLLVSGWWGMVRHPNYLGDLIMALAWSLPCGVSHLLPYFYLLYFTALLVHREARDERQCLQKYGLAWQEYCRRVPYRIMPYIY
UniProt Q9BVX2: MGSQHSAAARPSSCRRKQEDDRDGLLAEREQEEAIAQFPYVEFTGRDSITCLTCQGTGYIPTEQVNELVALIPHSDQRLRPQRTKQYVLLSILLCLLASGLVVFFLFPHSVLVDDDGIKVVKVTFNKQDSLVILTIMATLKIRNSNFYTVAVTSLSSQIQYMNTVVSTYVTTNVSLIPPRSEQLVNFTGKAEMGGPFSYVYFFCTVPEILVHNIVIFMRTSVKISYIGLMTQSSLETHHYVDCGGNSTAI
UniProt Q9BSA9: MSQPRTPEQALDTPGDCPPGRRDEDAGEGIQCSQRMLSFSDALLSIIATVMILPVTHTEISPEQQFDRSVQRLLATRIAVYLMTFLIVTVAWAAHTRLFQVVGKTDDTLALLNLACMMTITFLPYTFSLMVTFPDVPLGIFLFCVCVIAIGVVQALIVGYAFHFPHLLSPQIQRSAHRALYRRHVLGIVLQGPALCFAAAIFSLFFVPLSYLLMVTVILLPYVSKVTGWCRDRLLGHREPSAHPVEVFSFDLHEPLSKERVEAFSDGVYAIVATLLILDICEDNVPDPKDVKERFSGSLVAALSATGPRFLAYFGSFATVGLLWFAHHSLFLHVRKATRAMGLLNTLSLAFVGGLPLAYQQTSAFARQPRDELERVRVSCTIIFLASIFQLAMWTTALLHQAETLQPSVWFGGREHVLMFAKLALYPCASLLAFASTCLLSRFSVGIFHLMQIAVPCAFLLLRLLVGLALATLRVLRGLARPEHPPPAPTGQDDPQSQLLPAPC
UniProt Q6PL24: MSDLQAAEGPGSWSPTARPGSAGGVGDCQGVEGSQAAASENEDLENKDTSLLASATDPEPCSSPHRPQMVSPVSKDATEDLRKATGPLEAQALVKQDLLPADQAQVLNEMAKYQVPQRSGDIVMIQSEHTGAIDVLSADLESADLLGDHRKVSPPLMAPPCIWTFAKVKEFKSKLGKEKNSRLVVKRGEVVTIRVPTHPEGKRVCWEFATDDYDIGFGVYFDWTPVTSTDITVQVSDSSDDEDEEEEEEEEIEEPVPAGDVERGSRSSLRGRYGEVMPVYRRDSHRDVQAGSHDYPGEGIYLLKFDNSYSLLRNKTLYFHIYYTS
UniProt O95807: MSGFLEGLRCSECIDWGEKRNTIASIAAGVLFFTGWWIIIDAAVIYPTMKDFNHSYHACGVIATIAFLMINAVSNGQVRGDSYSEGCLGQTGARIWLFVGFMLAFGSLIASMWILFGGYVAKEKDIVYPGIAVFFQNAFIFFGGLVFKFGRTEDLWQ
UniProt Q5SNT2: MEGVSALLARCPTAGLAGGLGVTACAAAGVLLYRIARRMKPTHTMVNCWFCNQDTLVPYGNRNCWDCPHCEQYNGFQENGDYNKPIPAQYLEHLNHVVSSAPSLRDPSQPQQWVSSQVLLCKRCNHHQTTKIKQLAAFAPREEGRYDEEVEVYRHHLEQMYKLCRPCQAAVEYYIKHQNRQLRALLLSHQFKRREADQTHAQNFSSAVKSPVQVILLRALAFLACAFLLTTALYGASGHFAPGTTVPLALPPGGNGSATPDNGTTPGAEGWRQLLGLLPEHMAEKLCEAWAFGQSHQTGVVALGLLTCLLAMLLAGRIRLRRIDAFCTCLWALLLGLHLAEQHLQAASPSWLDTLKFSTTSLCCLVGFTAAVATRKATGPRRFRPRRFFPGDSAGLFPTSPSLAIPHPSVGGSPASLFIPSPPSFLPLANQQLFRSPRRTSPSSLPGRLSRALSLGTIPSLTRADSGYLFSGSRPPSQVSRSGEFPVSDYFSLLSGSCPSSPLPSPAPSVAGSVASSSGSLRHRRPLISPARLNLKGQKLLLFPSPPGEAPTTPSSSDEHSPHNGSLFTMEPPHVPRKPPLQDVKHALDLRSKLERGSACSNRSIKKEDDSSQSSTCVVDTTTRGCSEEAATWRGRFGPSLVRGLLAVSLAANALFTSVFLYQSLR
UniProt Q08117: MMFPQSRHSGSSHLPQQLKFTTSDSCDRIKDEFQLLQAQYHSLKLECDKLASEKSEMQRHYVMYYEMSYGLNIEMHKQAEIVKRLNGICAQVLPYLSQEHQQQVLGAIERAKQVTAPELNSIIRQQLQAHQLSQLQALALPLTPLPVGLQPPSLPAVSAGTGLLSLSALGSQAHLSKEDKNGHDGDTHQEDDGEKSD
UniProt Q7Z403: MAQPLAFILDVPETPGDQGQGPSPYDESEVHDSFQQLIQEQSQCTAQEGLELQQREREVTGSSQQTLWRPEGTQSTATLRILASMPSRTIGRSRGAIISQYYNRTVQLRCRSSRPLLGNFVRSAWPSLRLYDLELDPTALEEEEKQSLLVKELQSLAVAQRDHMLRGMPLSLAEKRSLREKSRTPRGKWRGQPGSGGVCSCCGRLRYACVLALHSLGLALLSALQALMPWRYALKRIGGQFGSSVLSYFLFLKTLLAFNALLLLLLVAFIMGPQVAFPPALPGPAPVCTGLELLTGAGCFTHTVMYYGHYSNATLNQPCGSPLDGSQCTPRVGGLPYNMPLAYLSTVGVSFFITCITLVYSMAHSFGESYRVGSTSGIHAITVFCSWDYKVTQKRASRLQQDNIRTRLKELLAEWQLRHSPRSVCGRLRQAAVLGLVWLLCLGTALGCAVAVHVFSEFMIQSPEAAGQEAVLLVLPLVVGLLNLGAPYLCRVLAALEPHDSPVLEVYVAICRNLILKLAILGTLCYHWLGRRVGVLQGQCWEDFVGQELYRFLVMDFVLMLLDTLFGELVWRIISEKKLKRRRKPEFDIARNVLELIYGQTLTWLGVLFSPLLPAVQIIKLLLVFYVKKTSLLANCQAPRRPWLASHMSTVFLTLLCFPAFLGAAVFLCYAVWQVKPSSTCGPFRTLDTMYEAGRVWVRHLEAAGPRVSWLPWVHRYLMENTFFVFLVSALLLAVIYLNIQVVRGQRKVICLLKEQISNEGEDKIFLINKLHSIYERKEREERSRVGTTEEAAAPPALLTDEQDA

Experiments:
Experiment in all cases: log2 fold change, soluble protein after heating vs DMSO (PISA); higher = thermal stabilisation; K562 cells, 10 uM, 30 min; active = over 0.2 and 3.5 SD of the protein, either way, in both replicates (recomputed)
[1] = compound: NC(=O)Nc1cc(-c2cccc(F)c2)sc1C(=O)N[C@H]1CCCNC1
Procedure, shortened: (§1)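 Values are thermal stability changes relative to control samples and are taken from duplicates. They are stated as log2 fold changes. Before quantification by TMTpro 16plex LC-MS/MS with equalised channel sums, K562 cells at 2×10^6 cells/mL were treated with 10 μM compound for 30 min, heated in aliquots for 3 min across 48°C-58°C, pooled, extracted in PBS with 0.5% NP-40 at 4°C, and centrifuged at 21,000xg for 90 min to give the soluble supernatant.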

[2] = compound: NC(=O)c1cnc(N[C@@H]2CCCC[C@@H]2N)nc1Nc1cccc(-n2nccn2)c1
Procedure, shortened: as §1

[3] = compound: NC1(c2ccc(-c3nc4ccn5c(=O)[nH]nc5c4cc3-c3ccccc3)cc2)CCC1
Procedure, shortened: as §1

entinostat = compound: Nc1ccccc1NC(=O)c1ccc(CNC(=O)OCc2cccnc2)cc1 [entinostat]
Procedure, shortened: as §1

citarinostat = compound: O=C(CCCCCCNC(=O)c1cnc(N(c2ccccc2)c2ccccc2Cl)nc1)NO [citarinostat]
Procedure, shortened: as §1

silmitasertib = compound: O=C(O)c1ccc2c(c1)nc(Nc1cccc(Cl)c1)c1ccncc12 [silmitasertib]
Procedure, shortened: as §1

[4] = compound: c1cc(OCCN2CCCCC2)cc(-c2n[nH]c3ccc(-c4nnc[nH]4)cc23)c1
Procedure, shortened: as §1

entospletinib = compound: c1cn2cc(-c3ccc4cn[nH]c4c3)nc(Nc3ccc(N4CCOCC4)cc3)c2n1 [entospletinib]
Procedure, shortened: as §1

[5] = compound: NCC(=O)Nc1ccc(-n2nc(C(F)(F)F)cc2-c2ccc3c(ccc4ccccc43)c2)cc1
Procedure, shortened: as §1

vorinostat = compound: O=C(CCCCCCC(=O)Nc1ccccc1)NO [vorinostat]
Procedure, shortened: as §1

[6] = compound: O=C1NC(=O)C(c2cnc3ccccn23)=C1c1cn2c3c(cc(F)cc13)CN(C(=O)N1CCCCC1)CC2
Procedure, shortened: as §1

Measured: log2 fold change

TMEM143 (UniProt Q96AN5)
inactive: [1] -0.022 | [2] -0.07 | [3] 0.286 | entinostat 0.03 | citarinostat 0.007 | silmitasertib -0.055 | [4] -0.054 | entospletinib -0.075

TMPPE (UniProt Q6ZT21)
inactive: [1] -0.009 | [2] -0.029 | [3] -0.022 | [5] 0.027 | entinostat -0.032 | vorinostat 0.08 | citarinostat -0.014 | silmitasertib 0.037 | [6] -0.021 | [4] -0.033 | entospletinib 0.008

TMCC1 (UniProt O94876)
inactive: [1] -0.002 | [2] -0.04 | [3] -0.165 | entinostat 0.084 | vorinostat -0.079 | silmitasertib 0.074 | [6] 0.098

TM7SF2 (UniProt O76062)
inactive: [1] 0.057 | [5] -0.276 | entinostat 0.119

TMEM106C (UniProt Q9BVX2)
inactive: [1] 0.129 | [5] 0.2 | entinostat 0.049

TMEM175 (UniProt Q9BSA9)
inactive: [2] -0.131 | citarinostat -0.15 | [4] 0.014 | entospletinib -0.046

TMED8 (UniProt Q6PL24)
inactive: [2] 0.014 | [3] -0.096 | [5] 0.042 | vorinostat -0.03 | citarinostat 0.007 | silmitasertib 0.057 | [4] 0.041 | entospletinib 0.038

TMEM50A (UniProt O95807)
inactive: [2] 0.033 | [5] 0.108 | [6] -0.06

Quoted at random: 2 entries already listed.
TMED8 (UniProt Q6PL24)
inactive: [2] 0.014 | [3] -0.096 | [5] 0.042 | vorinostat -0.03 | citarinostat 0.007 | silmitasertib 0.057 | [4] 0.041 | entospletinib 0.038

TMPPE (UniProt Q6ZT21)
inactive: [1] -0.009 | [2] -0.029 | [3] -0.022 | [5] 0.027 | entinostat -0.032 | vorinostat 0.08 | citarinostat -0.014 | silmitasertib 0.037 | [6] -0.021 | [4] -0.033 | entospletinib 0.008

Next part

TMEM201 (UniProt Q5SNT2)
inactive: [1] 0.063 | [3] 0.049 | entinostat -0.037 | vorinostat 0.041 | silmitasertib 0.021 | [6] 0.084

TLE5 isoform 2 (UniProt Q08117)
inactive: [2] -0.009 | [3] -0.006 | [5] 0.064 | vorinostat 0.028 | citarinostat -0.103 | silmitasertib -0.106 | [4] -0.22 | entospletinib 0.13

TMC6 (UniProt Q7Z403)
inactive: [2] -0.073 | [3] 0.087 | [5] 0.072 | vorinostat -0.002 | citarinostat -0.028 | silmitasertib 0.102 | [4] -0.045 | entospletinib 0.179
